At least one structure is not confirmed: it was looked up by name or label, or the drawing left a doubt.
What was measured:
[1] = tested on: RXFP1 gene expression in human fibroblast like synoviocytes; assay: RXFP1 gene expression by qPCR after corticosteroid treatment under fibrotic conditions; assay type: cell-based; details: qPCR (FIG. 3)
shoulder contracture = assay: study design 2 with controls, rat shoulder contracture (planned); assay type: in vivo, Sprague Dawley rats; details: Group 3: DEX 10 μg/kg, 5 injections

**Q.** Which RXFP1 gene expression [1] does the source give for C[C@H]1C[C@@H]2[C@H]([C@@H](O)C[C@@]3(C)[C@H]2CC[C@]3(O)C(=O)CO)[C@@]2(C)C=CC(=O)C=C12 [methylprednisolone] here?
**A.** Its RXFP1 gene expression is “increases RXFP1 gene expression”.

**Q.** C[C@@H]1C[C@H]2[C@@H]3CCC4=CC(=O)C=C[C@]4(C)[C@@]3(F)[C@@H](O)C[C@]2(C)[C@@]1(O)C(=O)CO [dexamethasone] was tested. Which RXFP1 gene expression [1] did it give?
**A.** The RXFP1 gene expression was “increases RXFP1 gene expression”.

**Q.** What about the “Expected Outcome: ROM recovery” value (shoulder contracture) of the same compound?
**A.** Its value is “Clinical comparison control. Limited/negligible recovery of”.

**Q.** What about the “Expected Outcome: shoulder contracture by histology” value (shoulder contracture) of the same compound?
**A.** Its value is “ROM as measured by kinematics, with significant shoulder”.

Source: US20250213494A1, “METHODS AND COMPOSITIONS FOR POTENTIATION OF A LIGAND” (priority 2022, published 2025)
